This note sets out measurements from US8624027B2, “Combination therapy for treating cancer and diagnostic assays for use therein” (AbbVie Inc., priority 2005, dated 2014).

Structures are written as SMILES.

The first data set in a line: Pharmacokinetic evaluation in rat. The data set is classed as in vivo. The settings on record: Table 2. As to the method:
The pharmacokinetic behavior of compounds of this disclosure was determined following a single 2 mg/kg intravenous or 5 mg/kg oral dose in male Sprague-Dawley derived rats (n=3 per group). The compounds were prepared as 2 mg/mL solution in a 10% DMSO in PEG-400 formulation for both oral and intravenous administration. The 1 mL/kg intravenous dose was administered as a slow bolus (about 1-2 minutes) in the jugular vein of a rat under light ether anesthetic. The oral dose was administered by gavage. Serial blood samples were obtained from a tail vein of each rat prior 0.1 (IV only), 0.25, 0.5, 1, 1.5, 2, 3, 4, 6, 8 and 24 hours after dosing. The heparinized samples were thoroughly mixed and placed in an ice bath. Plasma was separated by centrifugation and stored frozen prior to analysis.
The compounds of interest were separated from the plasma using protein precipitation with acetonitrile. A plasma (100-200 μL, sample or spiked standard) aliquot was combined with 50 μL of internal standard (structurally related analog prepared in acetonitrile) and 1 ml acetonitrile in a 96-well polypropylene deep well plate. The plates were vortexed for 30 seconds followed by centrifugation (3500 rpm×15 minutes, 4° C.). In an automated manner, the supernatant was transferred to a clean 96-well plate. The samples were evaporated to near dryness on a Micro-Vap™ under a stream of dry nitrogen over low heat (˜37° C.). The samples were reconstituted vortexing with 0.2 mL 5% DMSO in acetonitrile. A 0.1-0.2 ml aliquot of acetonitrile: 0.1% trifluoroacetic acid (20:80, by volume) was added to each well, followed by an additional 30 second vortexing. The plates were centrifuged (3500 rpm×15 minutes, 4° C.) prior to HPLC-MS/MS analysis. Samples were analyzed simultaneously with spiked plasma standards. All samples from each study were analyzed as a single batch on the LC-MS/MS.
The compounds of interest and the internal standard were separated from each other and co-extracted contaminants on a 50×3 mm Keystone Betasil CN 5 μm column with an acetonitrile: 0.1% trifluoroacetic acid mobile phase (50:50, by volume) at a flow rate of 0.7 ml/min. Analysis was performed on a Sciex API 300™ Biomolecular Mass Analyzer using a heated nebulizer interface. Peak areas of the title compounds and internal standards were determined using the Sciex MacQuan™ software. Calibration curves were derived from peak area ratio (parent drug/internal standard) of the spiked rat plasma standards using least squares linear regression of the ratio versus the theoretical concentration. The methods were generally linear over the range of the standard curve (correlation coefficients >0.99) with an estimated quantitation limit of 0.01 μg/mL. The plasma concentration data for each animal were submitted to multi-exponential curve fitting using WinNonlin. The area under the plasma concentration-time curve from 0 to t hours (time of the last measurable plasma concentration) after dosing (AUC0-t) was calculated using the linear trapezoidal rule for the plasma concentration-time profiles. The residual area extrapolated to infinity, determined as the final measured plasma concentration (Ct) divided by the terminal elimination rate constant (β), was added to AUC0-t to produce the total area under the curve (AUC0-∞). Ki values shown in the tables below were determined using Wang's equation (Wang Z X., An Exact Mathematical Expression For Describing Competitive Binding Of Two Different Ligands To A Protein Molecule. FEBS Lett. 1995; 360:111-4)).
Take `CN(C)CC[C@H](CSc1ccccc1)Nc1ccc(S(=O)(=O)NC(=O)c2ccc(N3CCN(Cc4ccccc4-c4ccc(Cl)cc4)CC3)cc2)c(F)c1C(F)(F)F` [D, reference compound]: the “PK/PD ratio AUC/EC50” value is 0.5.

Consider `CN(C)CC[C@H](CSc1ccccc1)Nc1ccc(S(=O)(=O)NC(=O)c2ccc(N3CCN(Cc4ccccc4-c4ccc(Cl)cc4)CC3)cc2)cc1C#N` [C, reference compound], for which the “PK/PD ratio AUC/EC50” value was found to be 1.1.

Still in this data set, the particulars now being: Table 3.
Turning to `O=C(NS(=O)(=O)c1ccc(N[C@H](CCN2C[C@@H]3C[C@H]2CO3)CSc2ccccc2)c(S(=O)(=O)C(F)(F)Cl)c1)c1ccc(N2CCN(CC3=C(c4ccc(Cl)cc4)CCCC3)CC2)cc1` [Example 6, 3-((chloro(difluoro)methyl)sulfonyl)-N-(4-(4-((2-(4-chlorophenyl)cyclohex-1-en-1-yl)methyl)piperazin-1-yl)benzoyl)-4-(((1R)-3-((1S,4S)-2-oxa-5-azabicyclo[2.2.1]hept-5-yl)-1-((phenylsulfanyl)methyl)propyl)amino)benzenesulfonamide], the “PK/PD ratio AUC/EC50” value turned out to be 91.6. Same read-out and setting: in the case of `O=C(NS(=O)(=O)c1ccc(N[C@H](CCN2CCOCC2)CSc2ccccc2)c(S(=O)(=O)C(F)(F)Cl)c1)c1ccc(N2CCN(CC3=C(c4ccc(Cl)cc4)CCCC3)CC2)cc1` [Example 3, 3-((chloro(difluoro)methyl)sulfonyl)-N-(4-(4-((2-(4-chlorophenyl)-1-cyclohex-1-en-1-yl)methyl)piperazin-1-yl)benzoyl)-4-(((1R)-3-(morpholin-4-yl)-1-((phenylsulfanyl)methyl)propyl)amino)benzenesulfonamide] it was 143.6. Still for that read-out and setting: in the case of `CC(C)N(C)CC[C@H](CSc1ccccc1)Nc1ccc(S(=O)(=O)NC(=O)c2ccc(N3CCN(CC4=C(c5ccc(Cl)cc5)CCCC4)CC3)cc2)cc1S(=O)(=O)C(F)(F)F` [Example 33, N-(4-(4-((2-(4-chlorophenyl)cyclohex-1-en-1-yl)methyl)piperazin-1-yl)benzoyl)-4-(((1R)-3-(isopropyl(methyl)amino)-1-((phenylsulfanyl)methyl)propyl)amino)-3-((trifluoromethyl)sulfonyl)benzenesulfonamide] it was 79.8.

The data set is the same for the next values; noted with them: rat oral AUC / NCI-H146 EC50; Table 1.
As for `O=C(NS(=O)(=O)c1ccc(N[C@H](CCN2CCCC2)CSc2ccccc2)c(S(=O)(=O)C(F)(F)F)c1)c1ccc(N2CCN(CC3=C(c4ccc(Cl)cc4)CCCCC3)CC2)cc1` [Example 29, N-(4-(4-((2-(4-chlorophenyl)cyclohept-1-en-1-yl)methyl)piperazin-1-yl)benzoyl)-4-(((1R)-1-((phenylsulfanyl)methyl)-3-(pyrrolidin-1-yl)propyl)amino)-3-((trifluoromethyl)sulfonyl)benzenesulfonamide], the “PK/PD ratio AUC/EC50” value is 58. Same read-out and setting: for `CC1(C)CCC(CN2CCN(c3ccc(C(=O)NS(=O)(=O)c4ccc(N[C@H](CCN5C[C@@H]6C[C@H]5CO6)CSc5ccccc5)c(S(=O)(=O)C(F)(F)Cl)c4)cc3)CC2)=C(c2ccc(Cl)cc2)C1` [Example 25, 3-((chloro(difluoro)methyl)sulfonyl)-N-(4-(4-((2-(4-chlorophenyl)-4,4-dimethylcyclohex-1-en-1-yl)methyl)piperazin-1-yl)benzoyl)-4-(((1R)-3-((1S,4S)-2-oxa-5-azabicyclo[2.2.1]hept-5-yl)-1-((phenylsulfanyl)methyl)propyl)amino)benzenesulfonamide] the value was 102; for `CC1(C)CCC(c2ccc(Cl)cc2)=C(CN2CCN(c3ccc(C(=O)NS(=O)(=O)c4ccc(N[C@H](CCN5CCOCC5)CSc5ccccc5)c(S(=O)(=O)C(F)(F)Cl)c4)cc3)CC2)C1` [Example 19, 3-((chloro(difluoro)methyl)sulfonyl)-N-(4-(4-((2-(4-chlorophenyl)-5,5-dimethylcyclohex-1-en-1-yl)methyl)piperazin-1-yl)benzoyl)-4-(((1R)-3-(morpholin-4-yl)-1-((phenylsulfanyl)methyl)propyl)amino)benzenesulfonamide], 451. Consider `CC(C)N(C)CC[C@H](CSc1ccccc1)Nc1ccc(S(=O)(=O)NC(=O)c2ccc(N3CCN(CC4=C(c5ccc(Cl)cc5)CC(C)(C)CC4)CC3)cc2)cc1S(=O)(=O)C(F)(F)F` [Example 14, N-(4-(4-((2-(4-chlorophenyl)-4,4-dimethylcyclohex-1-en-1-yl)methyl)piperazin-1-yl)benzoyl)-4-(((1R)-3-(isopropyl(methyl)amino)-1-((phenylsulfanyl)methyl)propyl)amino)-3-((trifluoromethyl)sulfonyl)benzenesulfonamide], for which the “PK/PD ratio AUC/EC50” value was found to be 111. On the same count and under the same terms, in the case of `CC1(C)CCC(CN2CCN(c3ccc(C(=O)NS(=O)(=O)c4ccc(N[C@H](CCN5C[C@@H]6C[C@H]5CO6)CSc5ccccc5)c(S(=O)(=O)C(F)(F)F)c4)cc3)CC2)=C(c2ccc(Cl)cc2)C1` [Example 36, N-(4-(4-((2-(4-chlorophenyl)-4,4-dimethylcyclohex-1-en-1-yl)methyl)piperazin-1-yl)benzoyl)-4-(((1R)-3-((1S,4S)-2-oxa-5-azabicyclo[2.2.1]hept-5-yl)-1-((phenylsulfanyl)methyl)propyl)amino)-3-((trifluoromethyl)sulfonyl)benzenesulfonamide] it was 174; in that of `O=C(NS(=O)(=O)c1ccc(N[C@H](CCN2CCCC2)CSc2ccccc2)c(S(=O)(=O)C(F)(F)F)c1)c1ccc(N2CCN(CC3=C(c4ccc(Cl)cc4)CCCC3)CC2)cc1` [Example 27, N-(4-(4-((2-(4-chlorophenyl)cyclohex-1-en-1-yl)methyl)piperazin-1-yl)benzoyl)-4-(((1R)-1-((phenylsulfanyl)methyl)-3-(pyrrolidin-1-yl)propyl)amino)-3-((trifluoromethyl)sulfonyl)benzenesulfonamide], 112; in that of `O=C(NS(=O)(=O)c1ccc(N[C@H](CCN2C[C@@H]3C[C@H]2CO3)CSc2ccccc2)c(S(=O)(=O)C(F)(F)Cl)c1)c1ccc(N2CCN(CC3=C(c4ccc(Cl)cc4)CCCC3)CC2)cc1` [Example 6, 3-((chloro(difluoro)methyl)sulfonyl)-N-(4-(4-((2-(4-chlorophenyl)cyclohex-1-en-1-yl)methyl)piperazin-1-yl)benzoyl)-4-(((1R)-3-((1S,4S)-2-oxa-5-azabicyclo[2.2.1]hept-5-yl)-1-((phenylsulfanyl)methyl)propyl)amino)benzenesulfonamide], 91. The same measure, in the same setting: in the case of `O=C(NS(=O)(=O)c1ccc(N[C@H](CCN2CCOCC2)CSc2ccccc2)c(S(=O)(=O)C(F)(F)Cl)c1)c1ccc(N2CCN(CC3=C(c4ccc(Cl)cc4)CCCC3)CC2)cc1` [Example 3, 3-((chloro(difluoro)methyl)sulfonyl)-N-(4-(4-((2-(4-chlorophenyl)-1-cyclohex-1-en-1-yl)methyl)piperazin-1-yl)benzoyl)-4-(((1R)-3-(morpholin-4-yl)-1-((phenylsulfanyl)methyl)propyl)amino)benzenesulfonamide] it was 144; in that of `CC(C)N(C)CC[C@H](CSc1ccccc1)Nc1ccc(S(=O)(=O)NC(=O)c2ccc(N3CCN(CC4=C(c5ccc(Cl)cc5)CCC(C)(C)C4)CC3)cc2)cc1S(=O)(=O)C(F)(F)Cl` [Example 23, 3-((chloro(difluoro)methyl)sulfonyl)-N-(4-(4-((2-(4-chlorophenyl)-5,5-dimethylcyclohex-1-en-1-yl)methyl)piperazin-1-yl)benzoyl)-4-(((1R)-3-(isopropyl(methyl)amino)-1-((phenylsulfanyl)methyl)propyl)amino)benzenesulfonamide], 67. Same read-out and setting: for `CC(C)N(C)CC[C@H](CSc1ccccc1)Nc1ccc(S(=O)(=O)NC(=O)c2ccc(N3CCN(CC4=C(c5ccc(Cl)cc5)CCCCC4)CC3)cc2)cc1S(=O)(=O)C(F)(F)F` [Example 5, N-(4-(4-((2-(4-chlorophenyl)-1-cyclohepten-1-yl)methyl)piperazin-1-yl)benzoyl)-4-(((1R)-3-(isopropyl(methyl)amino)-1-((phenylsulfanyl)methyl)propyl)amino)-3-((trifluoromethyl)sulfonyl)benzenesulfonamide] the value was 57. As for `O=C(NS(=O)(=O)c1ccc(N[C@H](CCN2CC3CC2CO3)CSc2ccccc2)c(S(=O)(=O)C(F)(F)Cl)c1)c1ccc(N2CCN(CC3=C(c4ccc(Cl)cc4)CCCCC3)CC2)cc1` (stereo partly drawn) [Example 13, 3-((chloro(difluoro)methyl)sulfonyl)-N-(4-(4-((2-(4-chlorophenyl)cyclohept-1-en-1-yl)methyl)piperazin-1-yl)benzoyl)-4-(((1R)-3-(2-oxa-5-azabicyclo[2.2.1]hept-5-yl)-1-((phenylsulfanyl)methyl)propyl)amino)benzenesulfonamide], the “PK/PD ratio AUC/EC50” value is 108.

For the compound `CN(C)CC[C@H](CSc1ccccc1)Nc1ccc(S(=O)(=O)NC(=O)c2ccc(N3CCN(CC4=C(c5ccc(Cl)cc5)CCCCC4)CC3)cc2)cc1S(=O)(=O)C(F)(F)F` [Example 17, N-(4-(4-((2-(4-chlorophenyl)cyclohept-1-en-1-yl)methyl)piperazin-1-yl)benzoyl)-4-(((1R)-3-(dimethylamino)-1-((phenylsulfanyl)methyl)propyl)amino)-3-((trifluoromethyl)sulfonyl)benzenesulfonamide], the “PK/PD ratio AUC/EC50” value is 31.

In the case of `CC(C)N(C)CC[C@H](CSc1ccccc1)Nc1ccc(S(=O)(=O)NC(=O)c2ccc(N3CCN(CC4=C(c5ccc(Cl)cc5)CCCC4)CC3)cc2)cc1S(=O)(=O)C(F)(F)F` [Example 33, N-(4-(4-((2-(4-chlorophenyl)cyclohex-1-en-1-yl)methyl)piperazin-1-yl)benzoyl)-4-(((1R)-3-(isopropyl(methyl)amino)-1-((phenylsulfanyl)methyl)propyl)amino)-3-((trifluoromethyl)sulfonyl)benzenesulfonamide], the “PK/PD ratio AUC/EC50” value stood at 79.8.
